Data published in patent publication US20220235144A1.
Positions count from the first letter of the chain named. No constants are given. Whether binding was seen depends on the method and setting. Some entries that bind do so weakly or less than the wild type. Each block holds one binder with its values, some of them ahead of it.

Sequences of proteins named here, by UniProt entry; tags and fusion partners are left off. A change or cut given only in a name is not applied to a line headed by its entry. A line that says so, or that is headed by a name, gives the form on record, which may keep a tag or linker.
UniProt Q9P1W8: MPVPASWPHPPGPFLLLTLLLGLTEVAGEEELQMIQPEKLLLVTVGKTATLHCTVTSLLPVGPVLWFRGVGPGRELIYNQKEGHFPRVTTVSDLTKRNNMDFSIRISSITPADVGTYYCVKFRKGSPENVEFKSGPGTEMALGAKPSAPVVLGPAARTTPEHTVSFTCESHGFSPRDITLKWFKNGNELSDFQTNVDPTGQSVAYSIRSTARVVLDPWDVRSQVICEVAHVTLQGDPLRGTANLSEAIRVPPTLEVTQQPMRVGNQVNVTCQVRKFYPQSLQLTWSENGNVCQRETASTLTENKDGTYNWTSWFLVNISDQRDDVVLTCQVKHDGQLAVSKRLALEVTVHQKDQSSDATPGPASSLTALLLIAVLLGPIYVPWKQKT
hSIRPαV2 expressed on the cell surface (P78324, form named): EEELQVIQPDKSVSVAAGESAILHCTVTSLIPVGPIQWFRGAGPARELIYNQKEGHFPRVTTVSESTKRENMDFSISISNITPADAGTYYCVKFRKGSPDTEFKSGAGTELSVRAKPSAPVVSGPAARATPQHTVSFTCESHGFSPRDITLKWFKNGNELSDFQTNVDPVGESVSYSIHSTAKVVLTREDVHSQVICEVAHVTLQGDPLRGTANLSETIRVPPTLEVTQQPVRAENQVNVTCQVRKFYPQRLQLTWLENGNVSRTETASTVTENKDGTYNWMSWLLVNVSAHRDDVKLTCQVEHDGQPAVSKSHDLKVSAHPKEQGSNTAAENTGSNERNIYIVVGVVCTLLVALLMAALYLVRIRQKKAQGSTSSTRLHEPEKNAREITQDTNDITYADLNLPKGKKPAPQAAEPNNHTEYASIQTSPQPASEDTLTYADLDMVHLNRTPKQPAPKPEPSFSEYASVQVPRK

Experiments:
[1] = target: hSIRPγD1 with histidine tag (human) (UniProt Q9P1W8); test: SPR (Biacore), summary of Tables 13 and 14
[2] = target: hSIRPαV2 expressed on the cell surface (human) (UniProt P78324); test: FACS competition on EXPI293 cells stably expressing hSIRPαV2: biotinylated hCD47:Fc (2.5 µg/ml) mixed with serial dilutions of the antibody, bound hCD47:Fc detected with streptavidin-PE (MFI); blocked ligand: hCD47:Fc
[3] = target: hSIRPαV2 expressed on the cell surface (human) (UniProt P78324); test: flow cytometry on monocytes in PBMCs, FIG. 6B
[4] = target: hSIRPαV2 expressed on the cell surface (human) (UniProt P78324); test: flow cytometry on primary human monocytes (FSC/SSC gate) in PBMCs expressing only SIRPαV2, antibody detected with APC-(Fab)2 goat anti-human IgG Fc (MFI at about 670 nm)

B1: Ab1_G4 (antibody, human IgG4 S228P, kappa, V domains shown)
VH: EVQLVESGGGLVKPGGSLRLSCAASGFTFSSYVMSWVRQTPGKGLEWVATISSGGTYTYYPSSVKGRFTLSRDNAKNSLYLQMNSLRAEDTAVYYCASSLTGSSFDYWGQGTTVTVSS
VL: DIVLTQSPASLAVSLGERATISCRASESVDLYGTSFMHWYQQKPGQPPKLLIYRASNLESGVPDRFSGSGSRTDFTLTINPLQAEDVATYYCHQSSDELPWTFGGGTKVEIKR
binding [1]: binds | binding [2]: binds

B3: Ab9_G4 (antibody, human IgG4 S228P, kappa, V domains shown)
VH: B1 VH with S62N, A97V, L100M
VL: B1 VL with L4I, L31S, T34N, D97E, E98Q
binding [1]: binds | binding [2]: binds

B4: Ab2_G4 (antibody, human IgG4 S228P, kappa, V domains shown)
VH: B1 VH with S62D, L100V, T101D, S104A
VL: B1 VL with L4I, L31S, T34M, D97E, E98N
binding [1]: binds | binding [2]: binds

B5: Ab8_G4 (antibody, human IgG4 S228P, kappa, V domains shown)
VH: B1 VH with S62E, S99Q, S104E
VL: DIVMTQSPASLAVSLGERATISCRASESVDSYGNSFMHWYQQKPGQPPKLLIYRASNLESGVPDRFSGSGSRTDFTLTINPLQAEDVATYYCHQSADLPWTFGGGTKVEIKR
binding [1]: binds

B7: Ab24_4422 PA (antibody, human IgG4 S228P, kappa)
heavy: EVQLVESGGGLVKPGGSLRLSCAASGFTFSSYVMSWVRQTPGKGLEWVATISSGGTYTYYPDSVKGRFTLSRDNAKNSLYLQMNSLRAEDTAVYYCASQLTGSEFDYWGQGTTVTVSSASTKGPSVFPLAPCSRSTSESTAALGCLVKDYFPEPVTVSWNSGALTSGVHTFPAVLQSSGLYSLSSVVTVPSSSLGTKTYTCNVDHKPSNTKVDKRVESKYGPPCPPCPAPPVAGPSVFLFPPKPKDTLMISRTPEVTCVVVDVSHEDPEVQFNWYVDGVEVHNAKTKPREEQFNSTFRVVSVLTVVHQDWLNGKEYKCKVSNKGLAAPIEKTISKTKGQPREPQVYTLPPSREEMTKNQVSLTCLVKGFYPSDIAVEWESNGQPENNYKTTPPMLDSDGSFFLYSKLTVDKSRWQQGNVFSCSVMHEALHNHYTQKSLSLSPGK
light: DIVLTQSPASLAVSLGERATISCRASESVDLYGTSFMHWYQQKPGQPPKLLIYRASNLESGVPDRFSGSGSRTDFTLTINPLQAEDVATYYCHQSSDELPWTFGGGTKVEIKRTVAAPSVFIFPPSDEQLKSGTASVVCLLNNFYPREAKVQWKVDNALQSGNSQESVTEQDSKDSTYSLSSTLTLSKADYEKHKVYACEVTHQGLSSPVTKSFNRGEC
binding [2]: binds

The remaining lines, values ahead:

binding [1]: binds | binding [3]: binds | binding [4]: binds | binding [2]: binds
B2: Ab11_G4 (antibody, human IgG4 S228P, kappa, V domains shown)
VH: B1 VH with S62D, S99Q, S104E
VL: B5 VL with M4I, A96G

binding [2]: binds
B6: Ab24_G2 (antibody, human IgG2, kappa)
heavy: B7 heavy with S193N, L194F, K197Q, R215T, S218R, Y220C, G221C, P222V, P223E, A326P
light: B7 light
